Laboratory results from publication PMC8560770.
Results are given in words; binding and its absence hold for the method and conditions named. Binding seen in cells or lysates may run through a third protein. Here binding means that the protein was enriched with, or labelled near, the bait; the list need not be complete.

Protein sequences, listed by entry. Tags and fused reporters are not part of them.
UniProt Q96RR4: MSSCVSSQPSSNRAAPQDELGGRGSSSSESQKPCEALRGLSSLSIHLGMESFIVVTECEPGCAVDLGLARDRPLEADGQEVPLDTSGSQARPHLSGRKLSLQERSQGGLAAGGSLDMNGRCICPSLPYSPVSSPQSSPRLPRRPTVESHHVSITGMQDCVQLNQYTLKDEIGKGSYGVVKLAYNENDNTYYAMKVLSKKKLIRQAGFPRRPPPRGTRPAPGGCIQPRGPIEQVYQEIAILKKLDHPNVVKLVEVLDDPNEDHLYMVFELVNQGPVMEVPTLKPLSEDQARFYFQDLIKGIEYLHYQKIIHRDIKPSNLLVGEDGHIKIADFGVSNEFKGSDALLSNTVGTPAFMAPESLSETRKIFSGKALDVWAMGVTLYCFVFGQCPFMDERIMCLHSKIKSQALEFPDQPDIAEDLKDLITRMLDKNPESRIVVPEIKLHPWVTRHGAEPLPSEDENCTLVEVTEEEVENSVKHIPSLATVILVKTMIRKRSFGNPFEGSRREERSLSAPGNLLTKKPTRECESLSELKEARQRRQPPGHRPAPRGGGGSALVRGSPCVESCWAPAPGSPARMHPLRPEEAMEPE

Target: Calcium/calmodulin-dependent protein kinase kinase 2 (CaMKK2), endogenous in LNCaP cells (human (endogenous in LNCaP)) (UniProt Q96RR4)
Assay: affinity purification with mass spectrometry; endogenous CaMKK2 IP (CaMKK2 antibody, Protein A Dynabeads) from LNCaP lysate, cells with 10 nM R1881 for 24 h or vehicle; rabbit IgG control; mass spectrometry

B1: δ-COP (ARCN1), endogenous in LNCaP cells (protein, UniProt P48444 1-511)
chain: MVLLAAAVCTKAGKAIVSRQFVEMTRTRIEGLLAAFPKLMNTGKQHTFVETESVRYVYQPMEKLYMVLITTKNSNILEDLETLRLFSRVIPEYCRALEENEISEHCFDLIFAFDEIVALGYRENVNLAQIRTFTEMDSHEEKVFRAVRETQEREAKAEMRRKAKELQQARRDAERQGKKAPGFGGFGSSAVSGGSTAAMITETIIETDKPKVAPAPARPSGPSKALKLGAKGKEVDNFVDKLKSEGETIMSSSMGKRTSEATKMHAPPINMESVHMKIEEKITLTCGRDGGLQNMELHGMIMLRISDDKYGRIRLHVENEDKKGVQLQTHPNVDKKLFTAESLIGLKNPEKSFPVNSDVGVLKWRLQTTEESFIPLTINCWPSESGNGCDVNIEYELQEDNLELNDVVITIPLPSGVGAPVIGEIDGEYRHDSRRNTLEWCLPVIDAKNKSGSLEFSIAGQPNDFFPVQVSFVSKKNYCNIQVTKVTQVDGNSPVRFSTETTFLVDKYEIL
binding: binds
